Some of the results follow. The data scatter; read single values as rough.
compound: ClCC(=O)N[C@@H]1CCCc2ccccc12; test: log2 mean competition ratio of IA-DTB cysteine labelling (DMSO/compound) (log2 ratio); higher = stronger cysteine engagement by compound; conditions: 50 µM; treatment time: 4 h; cell line lysate: HEK293T
Description: (§1)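 IA-DTB competitive cysteine chemoproteomics in HEK293T RIPA lysate. Lysates were treated with compound 29 or 30 at 50 or 200 µM for 4 h, then IA-DTB (500 µM, 1 h), trypsin-digested, NeutrAvidin-enriched and analysed by diaPASEF. Competition ratio = intensity DMSO / intensity compound (n=4 treated, n=64 DMSO); binding: mean log2 CR ≥ 1 and p ≤ 0.05 plus QC filters. Target is the cysteine site.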

Sequences of proteins named here, by UniProt entry; tags and fusion partners are left off. A change or cut given only in a name is not applied to a line headed by its entry. Residues count along the entry.
UniProt Q9NVI1: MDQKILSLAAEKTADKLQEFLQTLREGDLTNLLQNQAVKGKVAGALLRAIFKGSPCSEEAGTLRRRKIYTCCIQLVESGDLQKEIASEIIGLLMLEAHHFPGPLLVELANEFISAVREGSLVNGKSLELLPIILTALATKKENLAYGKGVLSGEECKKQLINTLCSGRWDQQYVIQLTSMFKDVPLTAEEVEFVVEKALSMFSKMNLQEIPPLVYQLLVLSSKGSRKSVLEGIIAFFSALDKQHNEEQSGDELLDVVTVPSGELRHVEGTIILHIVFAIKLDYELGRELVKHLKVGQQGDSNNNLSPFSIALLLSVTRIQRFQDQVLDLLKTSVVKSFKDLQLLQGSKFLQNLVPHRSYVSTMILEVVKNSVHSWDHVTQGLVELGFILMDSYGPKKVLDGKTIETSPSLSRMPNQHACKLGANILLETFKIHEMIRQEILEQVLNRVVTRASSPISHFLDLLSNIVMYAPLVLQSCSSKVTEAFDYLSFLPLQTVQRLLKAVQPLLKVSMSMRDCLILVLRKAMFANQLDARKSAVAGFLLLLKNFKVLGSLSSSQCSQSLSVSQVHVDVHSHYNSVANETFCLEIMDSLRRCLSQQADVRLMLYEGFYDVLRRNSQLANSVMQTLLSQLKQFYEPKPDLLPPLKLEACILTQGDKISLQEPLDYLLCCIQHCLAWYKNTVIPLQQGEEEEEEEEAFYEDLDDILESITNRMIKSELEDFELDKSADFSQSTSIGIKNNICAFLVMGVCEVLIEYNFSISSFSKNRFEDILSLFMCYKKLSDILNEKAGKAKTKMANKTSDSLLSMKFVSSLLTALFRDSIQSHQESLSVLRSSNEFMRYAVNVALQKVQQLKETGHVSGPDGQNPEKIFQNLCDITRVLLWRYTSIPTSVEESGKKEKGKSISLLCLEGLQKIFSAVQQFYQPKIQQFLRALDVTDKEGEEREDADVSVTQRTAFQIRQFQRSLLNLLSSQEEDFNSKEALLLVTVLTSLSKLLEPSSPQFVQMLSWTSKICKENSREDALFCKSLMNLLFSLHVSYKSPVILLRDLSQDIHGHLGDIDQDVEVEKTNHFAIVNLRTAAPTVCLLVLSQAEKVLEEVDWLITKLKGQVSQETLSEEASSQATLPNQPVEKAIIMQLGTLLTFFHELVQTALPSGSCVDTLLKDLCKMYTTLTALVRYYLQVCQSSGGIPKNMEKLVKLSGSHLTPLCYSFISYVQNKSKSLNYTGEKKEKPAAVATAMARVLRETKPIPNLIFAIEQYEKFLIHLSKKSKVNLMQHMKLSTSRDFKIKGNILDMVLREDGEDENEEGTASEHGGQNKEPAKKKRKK
UniProt Q6IA86: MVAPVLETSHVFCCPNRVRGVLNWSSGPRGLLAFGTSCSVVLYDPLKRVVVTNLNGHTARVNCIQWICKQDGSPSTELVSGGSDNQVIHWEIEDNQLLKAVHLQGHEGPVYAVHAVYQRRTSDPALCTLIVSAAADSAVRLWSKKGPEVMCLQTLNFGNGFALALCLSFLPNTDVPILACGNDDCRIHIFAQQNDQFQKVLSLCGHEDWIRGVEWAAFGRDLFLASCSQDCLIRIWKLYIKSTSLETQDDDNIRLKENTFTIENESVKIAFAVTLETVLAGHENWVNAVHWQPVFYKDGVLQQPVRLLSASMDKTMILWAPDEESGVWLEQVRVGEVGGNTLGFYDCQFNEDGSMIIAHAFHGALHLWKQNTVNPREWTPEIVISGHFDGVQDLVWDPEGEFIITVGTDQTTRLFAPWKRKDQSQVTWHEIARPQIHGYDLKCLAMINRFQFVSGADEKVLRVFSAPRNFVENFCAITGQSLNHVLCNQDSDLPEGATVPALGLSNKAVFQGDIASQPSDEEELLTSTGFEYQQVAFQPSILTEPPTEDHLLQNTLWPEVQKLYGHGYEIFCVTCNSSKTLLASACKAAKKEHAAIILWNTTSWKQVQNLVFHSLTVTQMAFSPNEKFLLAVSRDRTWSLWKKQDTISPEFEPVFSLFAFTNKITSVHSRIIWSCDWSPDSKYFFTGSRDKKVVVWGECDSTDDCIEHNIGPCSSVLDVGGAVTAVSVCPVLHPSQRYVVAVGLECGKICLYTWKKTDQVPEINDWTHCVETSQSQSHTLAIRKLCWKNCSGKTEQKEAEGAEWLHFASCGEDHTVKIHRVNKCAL
UniProt Q8TAV0: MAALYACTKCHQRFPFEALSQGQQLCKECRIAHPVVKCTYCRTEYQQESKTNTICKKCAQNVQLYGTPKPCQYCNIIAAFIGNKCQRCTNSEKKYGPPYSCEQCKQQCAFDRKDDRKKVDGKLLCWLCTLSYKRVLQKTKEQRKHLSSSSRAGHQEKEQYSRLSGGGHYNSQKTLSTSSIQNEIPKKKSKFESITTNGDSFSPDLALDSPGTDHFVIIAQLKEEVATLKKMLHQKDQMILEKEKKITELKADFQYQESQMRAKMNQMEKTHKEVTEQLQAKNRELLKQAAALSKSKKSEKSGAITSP
UniProt Q8WU58, 280-300: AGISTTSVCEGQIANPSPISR
UniProt Q96AY2: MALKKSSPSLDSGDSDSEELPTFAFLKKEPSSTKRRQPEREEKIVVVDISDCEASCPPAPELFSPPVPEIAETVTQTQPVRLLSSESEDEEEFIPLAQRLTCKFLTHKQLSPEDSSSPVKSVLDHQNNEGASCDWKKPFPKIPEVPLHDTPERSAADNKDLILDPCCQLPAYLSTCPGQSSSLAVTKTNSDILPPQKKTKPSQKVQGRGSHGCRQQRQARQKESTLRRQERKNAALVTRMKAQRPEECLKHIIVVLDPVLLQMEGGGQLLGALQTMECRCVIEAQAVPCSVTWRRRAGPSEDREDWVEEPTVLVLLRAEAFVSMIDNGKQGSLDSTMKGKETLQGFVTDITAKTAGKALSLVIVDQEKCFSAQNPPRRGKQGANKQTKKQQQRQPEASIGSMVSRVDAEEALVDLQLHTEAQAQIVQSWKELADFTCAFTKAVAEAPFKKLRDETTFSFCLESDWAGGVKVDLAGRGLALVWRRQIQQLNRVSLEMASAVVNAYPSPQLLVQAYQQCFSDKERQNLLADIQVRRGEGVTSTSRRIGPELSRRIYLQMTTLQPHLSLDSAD
UniProt Q17RN3: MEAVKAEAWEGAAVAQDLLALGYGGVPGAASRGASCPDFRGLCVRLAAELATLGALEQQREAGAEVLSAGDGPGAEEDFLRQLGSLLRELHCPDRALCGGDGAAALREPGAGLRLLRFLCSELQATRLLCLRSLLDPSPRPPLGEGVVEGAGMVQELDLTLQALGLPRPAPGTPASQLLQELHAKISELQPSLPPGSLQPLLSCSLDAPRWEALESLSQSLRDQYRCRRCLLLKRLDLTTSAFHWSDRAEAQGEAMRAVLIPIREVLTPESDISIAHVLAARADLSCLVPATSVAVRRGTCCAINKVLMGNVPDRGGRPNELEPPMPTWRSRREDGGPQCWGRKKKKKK
UniProt Q658Y4: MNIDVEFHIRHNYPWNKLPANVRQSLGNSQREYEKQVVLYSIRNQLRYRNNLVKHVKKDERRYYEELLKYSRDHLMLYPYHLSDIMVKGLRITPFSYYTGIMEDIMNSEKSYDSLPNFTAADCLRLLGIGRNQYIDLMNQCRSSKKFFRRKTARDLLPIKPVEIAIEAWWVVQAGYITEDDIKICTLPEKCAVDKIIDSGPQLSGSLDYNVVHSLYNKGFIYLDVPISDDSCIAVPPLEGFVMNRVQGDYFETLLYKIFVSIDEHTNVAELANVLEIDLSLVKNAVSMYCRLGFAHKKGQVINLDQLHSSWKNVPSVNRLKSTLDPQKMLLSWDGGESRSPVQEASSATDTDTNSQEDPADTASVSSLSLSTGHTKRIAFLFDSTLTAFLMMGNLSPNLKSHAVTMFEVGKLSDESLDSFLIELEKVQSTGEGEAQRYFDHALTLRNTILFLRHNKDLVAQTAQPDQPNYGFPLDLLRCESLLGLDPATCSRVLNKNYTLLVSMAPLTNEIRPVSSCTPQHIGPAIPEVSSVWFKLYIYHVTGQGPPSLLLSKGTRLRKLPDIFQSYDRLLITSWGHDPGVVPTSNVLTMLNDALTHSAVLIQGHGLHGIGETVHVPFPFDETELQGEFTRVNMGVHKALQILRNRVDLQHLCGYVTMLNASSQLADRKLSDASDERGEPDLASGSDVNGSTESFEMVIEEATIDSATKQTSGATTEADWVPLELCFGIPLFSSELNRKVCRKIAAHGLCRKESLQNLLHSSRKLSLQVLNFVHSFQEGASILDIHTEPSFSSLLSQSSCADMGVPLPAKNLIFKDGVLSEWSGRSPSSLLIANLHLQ
UniProt Q9NRY5: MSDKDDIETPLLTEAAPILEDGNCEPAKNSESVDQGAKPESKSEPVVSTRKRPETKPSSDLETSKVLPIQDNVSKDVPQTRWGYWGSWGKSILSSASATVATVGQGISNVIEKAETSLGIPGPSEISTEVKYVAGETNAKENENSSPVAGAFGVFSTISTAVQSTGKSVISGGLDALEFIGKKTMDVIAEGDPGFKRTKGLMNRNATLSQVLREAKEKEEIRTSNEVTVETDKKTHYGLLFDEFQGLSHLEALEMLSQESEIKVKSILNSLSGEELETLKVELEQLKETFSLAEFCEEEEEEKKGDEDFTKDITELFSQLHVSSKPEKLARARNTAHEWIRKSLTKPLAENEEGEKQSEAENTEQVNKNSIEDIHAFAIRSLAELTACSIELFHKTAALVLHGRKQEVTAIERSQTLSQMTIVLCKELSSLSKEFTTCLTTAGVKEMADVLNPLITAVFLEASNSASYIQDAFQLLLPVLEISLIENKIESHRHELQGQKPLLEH
UniProt Q52LR7, 413-432: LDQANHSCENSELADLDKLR
UniProt O95571: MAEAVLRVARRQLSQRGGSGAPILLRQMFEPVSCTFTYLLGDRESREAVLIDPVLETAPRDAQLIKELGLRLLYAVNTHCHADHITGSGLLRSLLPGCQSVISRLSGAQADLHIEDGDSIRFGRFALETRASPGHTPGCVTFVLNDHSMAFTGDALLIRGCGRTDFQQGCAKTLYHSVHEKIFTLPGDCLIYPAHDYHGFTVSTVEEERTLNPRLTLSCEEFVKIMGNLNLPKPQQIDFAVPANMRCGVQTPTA
UniProt Q9NY74: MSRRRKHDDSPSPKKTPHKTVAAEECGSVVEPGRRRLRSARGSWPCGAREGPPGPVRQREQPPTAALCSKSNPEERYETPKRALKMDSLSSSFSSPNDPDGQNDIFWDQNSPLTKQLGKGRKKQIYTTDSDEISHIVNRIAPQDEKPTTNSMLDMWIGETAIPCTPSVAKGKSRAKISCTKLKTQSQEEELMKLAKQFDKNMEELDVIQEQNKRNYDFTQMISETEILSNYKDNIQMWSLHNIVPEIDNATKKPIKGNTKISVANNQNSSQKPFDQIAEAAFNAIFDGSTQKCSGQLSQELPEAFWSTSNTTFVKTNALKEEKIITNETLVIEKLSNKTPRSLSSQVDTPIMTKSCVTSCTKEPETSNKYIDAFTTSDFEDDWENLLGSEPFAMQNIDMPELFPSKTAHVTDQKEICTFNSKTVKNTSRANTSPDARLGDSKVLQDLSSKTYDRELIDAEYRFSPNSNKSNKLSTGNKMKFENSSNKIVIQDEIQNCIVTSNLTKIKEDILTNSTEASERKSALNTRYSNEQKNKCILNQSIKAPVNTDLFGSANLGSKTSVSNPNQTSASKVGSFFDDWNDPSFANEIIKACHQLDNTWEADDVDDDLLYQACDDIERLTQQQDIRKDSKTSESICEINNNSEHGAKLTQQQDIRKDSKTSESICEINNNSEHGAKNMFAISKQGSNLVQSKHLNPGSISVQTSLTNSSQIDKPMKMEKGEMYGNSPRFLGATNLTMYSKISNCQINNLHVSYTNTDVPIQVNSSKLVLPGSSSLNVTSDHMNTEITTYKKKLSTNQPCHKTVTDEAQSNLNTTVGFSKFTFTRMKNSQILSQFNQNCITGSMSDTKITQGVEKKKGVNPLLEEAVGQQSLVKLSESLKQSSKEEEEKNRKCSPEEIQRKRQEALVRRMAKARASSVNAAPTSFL
UniProt Q9BV81: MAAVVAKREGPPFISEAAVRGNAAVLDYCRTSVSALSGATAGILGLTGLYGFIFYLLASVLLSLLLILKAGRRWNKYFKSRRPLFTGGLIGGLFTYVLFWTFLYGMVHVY
UniProt Q9BS26: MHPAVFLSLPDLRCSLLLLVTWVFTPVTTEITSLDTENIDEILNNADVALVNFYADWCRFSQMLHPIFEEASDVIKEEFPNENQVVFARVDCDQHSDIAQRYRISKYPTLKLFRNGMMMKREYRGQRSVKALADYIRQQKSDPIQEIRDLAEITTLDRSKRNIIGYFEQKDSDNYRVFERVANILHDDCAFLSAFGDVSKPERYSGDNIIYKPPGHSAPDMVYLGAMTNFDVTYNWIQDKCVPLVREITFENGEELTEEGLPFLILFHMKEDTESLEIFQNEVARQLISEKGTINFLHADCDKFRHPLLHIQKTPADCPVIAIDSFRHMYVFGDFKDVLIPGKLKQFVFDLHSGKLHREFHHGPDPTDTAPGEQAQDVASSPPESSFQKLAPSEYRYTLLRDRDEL

| Target | log2 mean competition ratio |
| --- | --- |
| ESYT2 C611 | -0.257 |
| EXOSC10 C73 (UniProt Q01780) | 0.225 |
| FANCI C875 (UniProt Q9NVI1) | -0.0131 |
| ERCC2 C259 (UniProt P18074) | 0.286 |
| FANCI C1025 (UniProt Q9NVI1) | -0.0701 |
| EPS8 C331 | -0.0588 |
| ELP2 C586 (UniProt Q6IA86) | 0.0235 |
| EPRS1 C660 | -0.17 |
| FAM76A C7 (UniProt Q8TAV0) | -0.276 |
| FAM120A C174 | -0.0528 |
| FAM222B C288 (UniProt Q8WU58) | -0.403 |
| ETFA C155 (UniProt P13804) | 0.216 |
| FANCM C1704 | -0.0309 |
| EYA4 C16 (UniProt O95677) | -0.277 |
| ENGASE C113 (UniProt Q8NFI3) | 0.036 |
| EME1 C248 (UniProt Q96AY2) | -0.249 |
| ENOSF1 C307 (UniProt Q7L5Y1) | 0.469 |
| FAM98C C36 (UniProt Q17RN3) | 0.0872 |
| FAM171A2 C742 (UniProt A8MVW0) | -0.31 |

| Target | log2 mean competition ratio |
| --- | --- |
| EP400 C2007 (UniProt Q96L91) | -0.242 |
| FAM91A1 C141 (UniProt Q658Y4) | -0.0402 |
| FAM189B C163 | 0.214 |
| FANCI C419 (UniProt Q9NVI1) | -0.129 |
| FAM136A C114 (UniProt Q96C01) | 0.16 |
| FAM98C C340 (UniProt Q17RN3) | -0.000554 |
| FAM114A2 C388 (UniProt Q9NRY5) | 0.201 |
| FANCI C56 (UniProt Q9NVI1) | 0.135 |
| EPC2 C420 (UniProt Q52LR7) | 0.145 |
| ESCO1 C483 | -0.107 |
| ETHE1 C170 (UniProt O95571) | -0.0904 |
| ETAA1 C637(C666) (UniProt Q9NY74) | -0.176 |
| EME1 C133 (UniProt Q96AY2) | -0.155 |
| EMC6 C29 (UniProt Q9BV81) | 0.135 |
| ERP44 C92 (UniProt Q9BS26) | -0.183 |
| ESPL1 C1345 (UniProt Q14674) | 0.0859 |
| ERCC6 C1464 | 0.389 |
| ERCC4 C143 (UniProt Q92889) | -0.0243 |

same assay, conditions: 200 µM; treatment time: 4 h; cell line lysate: HEK293T

| Target | log2 mean competition ratio |
| --- | --- |
| ESYT2 C611 | -0.128 |
| EXOSC10 C73 (UniProt Q01780) | -0.112 |
| FANCI C875 (UniProt Q9NVI1) | 0.00955 |
| ERCC2 C259 (UniProt P18074) | 0.00963 |
| FANCI C1025 (UniProt Q9NVI1) | 0.0276 |
| EPS8 C331 | 0.121 |
| ELP2 C586 (UniProt Q6IA86) | -0.236 |
| EPRS1 C660 | 0.057 |
| FAM76A C7 (UniProt Q8TAV0) | -0.195 |
| FAM120A C174 | 0.168 |
| FAM222B C288 (UniProt Q8WU58) | 0.231 |
| ETFA C155 (UniProt P13804) | 0.00974 |
| FANCM C1704 | -0.0942 |
| EYA4 C16 (UniProt O95677) | 0.325 |
| ENGASE C113 (UniProt Q8NFI3) | 0.0176 |
| EME1 C248 (UniProt Q96AY2) | 0.178 |
| ENOSF1 C307 (UniProt Q7L5Y1) | 0.855 |
| FAM98C C36 (UniProt Q17RN3) | 0.387 |
| FAM171A2 C742 (UniProt A8MVW0) | 0.15 |

| Target | log2 mean competition ratio |
| --- | --- |
| EP400 C2007 (UniProt Q96L91) | 0.169 |
| FAM91A1 C141 (UniProt Q658Y4) | 0.0357 |
| FAM189B C163 | 0.261 |
| FANCI C419 (UniProt Q9NVI1) | 0.722 |
| FAM136A C114 (UniProt Q96C01) | 0.736 |
| FAM98C C340 (UniProt Q17RN3) | -0.00597 |
| FAM114A2 C388 (UniProt Q9NRY5) | 0.0672 |
| FANCI C56 (UniProt Q9NVI1) | -0.018 |
| EPC2 C420 (UniProt Q52LR7) | 0.272 |
| ESCO1 C483 | -0.024 |
| ETHE1 C170 (UniProt O95571) | -0.0851 |
| ETAA1 C637(C666) (UniProt Q9NY74) | 0.0186 |
| EME1 C133 (UniProt Q96AY2) | 0.136 |
| EMC6 C29 (UniProt Q9BV81) | -0.134 |
| ERP44 C92 (UniProt Q9BS26) | 0.0281 |
| ESPL1 C1345 (UniProt Q14674) | 0.152 |
| ERCC6 C1464 | 0.175 |
| ERCC4 C143 (UniProt Q92889) | -0.0536 |

compound: ClCC(=O)N[C@H]1CCCc2ccccc12; test: as above; conditions: 50 µM; treatment time: 4 h; cell line lysate: HEK293T
Description: as §1

| Target | log2 mean competition ratio |
| --- | --- |
| ESYT2 C611 | -0.497 |
| EXOSC10 C73 (UniProt Q01780) | 0.466 |
| FANCI C875 (UniProt Q9NVI1) | -0.121 |
| ERCC2 C259 (UniProt P18074) | -0.0856 |
| FANCI C1025 (UniProt Q9NVI1) | 0.0876 |
| EPS8 C331 | -0.226 |
| ELP2 C586 (UniProt Q6IA86) | 0.0736 |
| EPRS1 C660 | -0.546 |
| FAM76A C7 (UniProt Q8TAV0) | 0.189 |
| FAM120A C174 | -0.452 |
| FAM222B C288 (UniProt Q8WU58) | 0.109 |
| ETFA C155 (UniProt P13804) | -0.226 |
| FANCM C1704 | -0.0971 |
| EYA4 C16 (UniProt O95677) | -0.245 |
| ENGASE C113 (UniProt Q8NFI3) | 0.177 |
| EME1 C248 (UniProt Q96AY2) | -0.0118 |
| ENOSF1 C307 (UniProt Q7L5Y1) | 0.678 |
| FAM98C C36 (UniProt Q17RN3) | 0.0957 |
| FAM171A2 C742 (UniProt A8MVW0) | -0.156 |

| Target | log2 mean competition ratio |
| --- | --- |
| EP400 C2007 (UniProt Q96L91) | -0.0444 |
| FAM91A1 C141 (UniProt Q658Y4) | 0.0793 |
| FAM189B C163 | -0.026 |
| FANCI C419 (UniProt Q9NVI1) | 0.103 |
| FAM136A C114 (UniProt Q96C01) | 0.161 |
| FAM98C C340 (UniProt Q17RN3) | 0.253 |
| FAM114A2 C388 (UniProt Q9NRY5) | 0.0101 |
| FANCI C56 (UniProt Q9NVI1) | 0.128 |
| EPC2 C420 (UniProt Q52LR7) | -0.582 |
| ESCO1 C483 | -0.4 |
| ETHE1 C170 (UniProt O95571) | 0.253 |
| ETAA1 C637(C666) (UniProt Q9NY74) | -0.305 |
| EME1 C133 (UniProt Q96AY2) | -0.273 |
| EMC6 C29 (UniProt Q9BV81) | 0.576 |
| ERP44 C92 (UniProt Q9BS26) | -0.259 |
| ESPL1 C1345 (UniProt Q14674) | -0.158 |
| ERCC6 C1464 | 0.0502 |
| ERCC4 C143 (UniProt Q92889) | -0.281 |
